{"sequences": {"note": "Sequences of proteins named here, by UniProt entry; tags and fusion partners are left off. A change or cut given only in a name is not applied to a line headed by its entry. Residues count along the entry.", "UniProt P15962, residues 1-296": "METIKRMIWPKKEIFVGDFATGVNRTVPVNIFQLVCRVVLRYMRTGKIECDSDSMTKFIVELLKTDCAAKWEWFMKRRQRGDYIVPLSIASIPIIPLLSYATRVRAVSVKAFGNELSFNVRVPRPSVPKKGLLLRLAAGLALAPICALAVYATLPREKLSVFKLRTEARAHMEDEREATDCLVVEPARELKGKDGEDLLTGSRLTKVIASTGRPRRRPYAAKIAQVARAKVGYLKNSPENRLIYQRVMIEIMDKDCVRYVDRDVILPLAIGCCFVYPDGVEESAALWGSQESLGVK", "UniProt Q9C566": "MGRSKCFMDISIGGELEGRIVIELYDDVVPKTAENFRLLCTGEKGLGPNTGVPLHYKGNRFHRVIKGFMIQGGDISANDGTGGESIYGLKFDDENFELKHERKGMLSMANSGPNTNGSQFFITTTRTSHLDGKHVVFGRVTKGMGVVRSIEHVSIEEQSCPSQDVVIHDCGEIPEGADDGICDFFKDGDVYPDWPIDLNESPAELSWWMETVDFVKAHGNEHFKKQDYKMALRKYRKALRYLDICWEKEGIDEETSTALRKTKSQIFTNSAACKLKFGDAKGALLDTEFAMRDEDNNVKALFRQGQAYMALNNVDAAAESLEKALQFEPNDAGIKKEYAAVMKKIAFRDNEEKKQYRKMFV", "UniProt Q9FJL3": "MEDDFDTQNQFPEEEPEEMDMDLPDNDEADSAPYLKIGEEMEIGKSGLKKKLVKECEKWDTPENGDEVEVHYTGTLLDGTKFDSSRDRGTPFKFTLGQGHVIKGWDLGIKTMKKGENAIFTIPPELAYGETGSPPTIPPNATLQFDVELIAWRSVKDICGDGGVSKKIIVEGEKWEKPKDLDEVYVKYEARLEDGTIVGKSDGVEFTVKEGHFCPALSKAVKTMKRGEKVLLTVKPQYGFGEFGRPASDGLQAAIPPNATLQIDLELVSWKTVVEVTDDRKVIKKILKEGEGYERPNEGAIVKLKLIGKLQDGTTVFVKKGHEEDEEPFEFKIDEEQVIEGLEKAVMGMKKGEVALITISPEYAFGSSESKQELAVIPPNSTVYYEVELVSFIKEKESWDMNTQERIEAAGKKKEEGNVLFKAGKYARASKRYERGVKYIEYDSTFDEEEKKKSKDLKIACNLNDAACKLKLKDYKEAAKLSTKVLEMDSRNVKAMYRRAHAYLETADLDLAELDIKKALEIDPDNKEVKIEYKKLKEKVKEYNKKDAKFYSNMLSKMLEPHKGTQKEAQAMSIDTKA"}, "source": "paper PMC3276564", "molecules": {"B1": {"name": "Cpr7p Cyp40-like cyclophilin (MYTH prey, pPRN-N-CPR7) (protein, UniProt P47103 1-393)", "chain": "MIQDPLVYLDISIDKKPIGRIVCKLFREKAPKTTENFYKLCAGDVKSPLKDQQYLSYKGNGFHRVVKNFMIQAGDIVFGTQKDSSSSSVGKGGCSIYADKEEVKTDDESFCYGNFEDENLGEFVEPFTLGMANLGSPNTNNSQFFITTYAAPHLNGKHSIFGQVVHGKSVVRTIENCRVDSDGVPESDVRISDCGVWEKTMGVPLYNASNDQIGGDVYEEYPDDDTHFGDDDFGKALEAANIIKESGTLLFKKKDYSNAFFKYRKSLNYINEYMPEPDVDKERNIQFINLKMKIYLNLSLVLFNLERYDDAIMYATYLLEMDNVPNRDQAKAYYRRGNSYLKKKRLDEALQDYIFCKEKNPDDEVIEQRIEYVNRLIEENKEKTRKNISKFFS"}}, "key": {"[1]": {"target": "TBSV p33 replication protein (split-ubiquitin bait, pGAD-BT2-N-His33) (Tomato bushy stunt virus) (UniProt P15962)", "experiment": "two-hybrid; split-ubiquitin membrane yeast two-hybrid (MYTH, Dualmembrane kit3); viral replication protein as bait co-expressed with NubG prey in yeast NMY51; growth on Trp-/Leu-/His-/Ade- plates"}, "[2]": {"target": "p130 replication protein of Tobacco mosaic virus (TMV) (MYTH bait) (Tobacco mosaic virus)", "experiment": "two-hybrid; split-ubiquitin membrane yeast two-hybrid (MYTH, Dualmembrane kit3); viral replication protein as bait co-expressed with NubG prey in yeast NMY51; growth on Trp-/Leu-/His-/Ade- plates"}}, "note": "These are yes or no findings as the source states them, for the method shown. Binding can be weak; no strength is given."}
{"molecule": "TPR domain of Arabidopsis Cyp40 protein At2g15790 (MYTH prey) (from UniProt Q9C566) (domain or fragment)", "values": [{"measurement": "binding", "setting": "[1]", "value": "binds weakly"}]}
{"molecule": "TPR domain of Arabidopsis Cyp40-like protein At5g48570 (MYTH prey) (from UniProt Q9FJL3) (domain or fragment)", "values": [{"measurement": "binding", "setting": "[1]", "value": "binds"}]}
{"molecule": "TPR domain of Cpr7p (MYTH prey) (from UniProt P47103) (domain or fragment)", "values": [{"measurement": "binding", "setting": "[1]", "value": "binds"}]}
{"molecule": "catalytic Cyp domain of Cpr7p (MYTH prey) (from UniProt P47103) (domain or fragment)", "values": [{"measurement": "binding", "setting": "[1]", "value": "binds"}]}
{"molecule": "B1", "values": [{"measurement": "binding", "setting": "[2]", "value": "binds"}]}
